Literature values as cited in patent US8592172B2, “Bioluminescent assays using cyanobenzothiazole compounds” (Promega Corporation, priority 2010, dated 2013).
At least one compound was matched to its structure with a doubt left.

System: UGT isozymes
Conditions: UGT isozymes currently reported in the literature; cited from earlier work

| SMILES | Isozymes Modulated |
| --- | --- |
| O=C1C(CC[S+]([O-])c2ccccc2)C(=O)N(c2ccccc2)N1c1ccccc1 (centres unmarked) [Sulfinpyrazone] | 1A1, 1A7, 1A8, 1A9, 1A10, others to a |
| CCCC(CCC)C(=O)O [Valproate] | 2B7 and 2B15, some others to a lesser |
